# Test results reported in the supplement of paper PMC8728848.
# The list shows a part of the results.
# What was measured:
# Test in all cases: glycan array binding signal (z-score within array); higher = stronger binding
# Conditions in all cases: glycan notation: IUPAC condensed, linker removed
# Fuc(a1-2)Gal = target: Fuc(a1-2)Gal
# Summary of the method: (§1)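 Negative Z-scores can be read as non-binding. The Z-score is calculated within each array and then averaged across arrays of one protein sequence at different concentrations or buffers and across linkers. Arrays, 3228 in all, were curated from the Consortium for Functional Glycomics database and kept only where the protein sequence was available.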
# Fuc(a1-2)Gal(b1-3)GalNAc = target: Fuc(a1-2)Gal(b1-3)GalNAc
# Summary of the method: as §1
# [1] = target: Fuc(a1-2)Gal(b1-3)GalNAc(a1-3)[Fuc(a1-2)]Gal(b1-4)Glc
# Summary of the method: as §1
# [2] = target: Fuc(a1-2)Gal(b1-3)GalNAc(a1-3)[Fuc(a1-2)]Gal(b1-4)GlcNAc
# Summary of the method: as §1
# [3] = target: Fuc(a1-2)Gal(b1-3)GalNAc(b1-3)Gal
# Summary of the method: as §1
# [4] = target: Fuc(a1-2)Gal(b1-3)GalNAc(b1-3)Gal(a1-4)Gal(b1-4)Glc
# Summary of the method: as §1
# [5] = target: Fuc(a1-2)Gal(b1-3)GalNAc(b1-4)[Neu5Ac(a2-3)]Gal(b1-4)Glc
# Summary of the method: as §1
# Fuc(a1-2)Gal(b1-3)GlcNAc = target: Fuc(a1-2)Gal(b1-3)GlcNAc
# Summary of the method: as §1
# [6] = target: Fuc(a1-2)Gal(b1-3)GlcNAc(b1-2)Man(a1-3)[Fuc(a1-2)Gal(b1-3)GlcNAc(b1-2)Man(a1-6)]Man(b1-4)GlcNAc(b1-4)GlcNAc
# Summary of the method: as §1
# [7] = target: Fuc(a1-2)Gal(b1-3)GlcNAc(b1-2)Man(a1-3)[Fuc(a1-2)Gal(b1-3)GlcNAc(b1-2)Man(a1-6)]Man(b1-4)GlcNAc(b1-4)[Fuc(a1-6)]GlcNAc
# Summary of the method: as §1
# [8] = target: Fuc(a1-2)Gal(b1-3)GlcNAc(b1-3)Gal(b1-4)Glc
# Summary of the method: as §1
# [9] = target: Fuc(a1-2)Gal(b1-3)GlcNAc(b1-3)GalNAc
# Summary of the method: as §1
# [10] = target: Fuc(a1-2)Gal(b1-3)GlcNAc(b1-3)[Fuc(a1-2)Gal(b1-3)GlcNAc(b1-6)]GalNAc
# Summary of the method: as §1
# [11] = target: Fuc(a1-2)Gal(b1-3)GlcNAc(b1-3)[Gal(b1-4)GlcNAc(b1-6)]Gal(b1-4)Glc
# Summary of the method: as §1
# [12] = target: Fuc(a1-2)Gal(b1-3)GlcNAc(b1-3)[Neu5Ac(a2-6)Gal(b1-4)GlcNAc(b1-6)]Gal(b1-4)Glc
# Summary of the method: as §1
# [13] = target: Fuc(a1-2)Gal(b1-3)GlcNAc6S
# Summary of the method: as §1
# [14] = target: Fuc(a1-2)Gal(b1-3)[Fuc(a1-4)]GlcNAc
# Summary of the method: as §1
# [15] = target: Fuc(a1-2)Gal(b1-3)[Fuc(a1-4)]GlcNAc(b1-2)Man(a1-3)[Fuc(a1-2)Gal(b1-3)[Fuc(a1-4)]GlcNAc(b1-2)Man(a1-3)]Man(b1-4)GlcNAc(b1-4)GlcNAc
# Summary of the method: as §1
# [16] = target: Fuc(a1-2)Gal(b1-3)[Fuc(a1-4)]GlcNAc(b1-2)Man(a1-3)[Fuc(a1-2)Gal(b1-3)[Fuc(a1-4)]GlcNAc(b1-2)Man(a1-6)]Man(b1-4)GlcNAc(b1-4)[Fuc(a1-6)]GlcNAc(b1-4)[Fuc(a1-6)]GlcNAc
# Summary of the method: as §1
# [17] = target: Fuc(a1-2)Gal(b1-3)[Fuc(a1-4)]GlcNAc(b1-3)[Fuc(a1-3)[Gal(b1-4)]GlcNAc(b1-6)]Gal(b1-4)Glc
# Summary of the method: as §1
# [18] = target: Fuc(a1-2)Gal(b1-3)[Fuc(a1-4)]GlcNAc(b1-3)[Gal(b1-4)GlcNAc(b1-6)]Gal(b1-4)Glc
# Summary of the method: as §1
# [19] = target: Fuc(a1-2)Gal(b1-4)Fuc(a1-3)]GlcNAc(b1-2)Man(a1-3)[Fuc(a1-2)Gal(b1-4)[Fuc(a1-3)]GlcNAc(b1-2)Man(a1-6)]Man(b1-4)GlcNAc(b1-4)GlcNAc
# Summary of the method: as §1
binder,measurement,setting,value
"CcfD (Bacteroides vulgatus), A6KYX8 (protein) MKYKNYFKSIIYLALGAFTLGSCEDFLDRQEDEKLTFDKIWESRNTTQQYWLNAMSFLPNENGSLQGDTEPYLGASDECTIAYDRQYRWINFGTWNPSQVPYYKMDHYYKGIRECNIFLQNVYKCSDPLVTKDQLDEWYWQTRFARAYYYFLMMRDYGPVFLLGDDLLDFTASTEELYRPRNTWDQCVNYVVSEMTQCAESGVVLQQSDLPAAKWGLATVGTCHAVISRLLLYSARPLFNGNKLYSTVKNPDAPDFPELSGVKLFPELDNTKWQKAAEAAKKLIDNPCYELYRAGNDNPYEDYYGVTHETWNKELIWTDRYNGLFSWGVGTVPTGVAGTAYGAVGPTQALVDAYAMNTGWYPITGYEADGTPIVEPLSGYELASELEKSSWIYPSGGWSNKADFEIEAPNMYKDREPRFYVTVFFGGNQWLHGNSATSISFAKGGNGNKSHDYPKSGYLCNRFYDHKLNSSEGQWGNITFPVFRLGEIYLNFIEAVLECKKNGVALDPSYEALAMEKWADLRKRAGLDPITSIYGQVSTEELIQLCRKERQIELAFERHRYFDTRTWMIATQTDNGKMYGMNTSCPLDAGMKGTETPDGFWERTAFETRVFQNKHYLYPFSQRELDRNKLLTQNYGW",glycan array binding signal (z-score),Fuc(a1-2)Gal,0.105
same,glycan array binding signal (z-score),Fuc(a1-2)Gal(b1-3)GalNAc,-0.122
same,glycan array binding signal (z-score),[1],-0.18
same,glycan array binding signal (z-score),[2],-0.896
same,glycan array binding signal (z-score),[3],-0.566
same,glycan array binding signal (z-score),[4],-0.495
same,glycan array binding signal (z-score),[5],0.224
same,glycan array binding signal (z-score),Fuc(a1-2)Gal(b1-3)GlcNAc,-0.007
same,glycan array binding signal (z-score),[6],2.03
same,glycan array binding signal (z-score),[7],-0.835
same,glycan array binding signal (z-score),[8],0.166
same,glycan array binding signal (z-score),[9],0.364
same,glycan array binding signal (z-score),[10],-0.266
same,glycan array binding signal (z-score),[11],-0.175
same,glycan array binding signal (z-score),[12],1.24
same,glycan array binding signal (z-score),[13],2.05
same,glycan array binding signal (z-score),[14],0.42
same,glycan array binding signal (z-score),[15],0.033
same,glycan array binding signal (z-score),[16],0.354
same,glycan array binding signal (z-score),[17],-0.566
same,glycan array binding signal (z-score),[18],-0.388
same,glycan array binding signal (z-score),[19],2

# Part of the list above, tab-delimited.
binder	measurement	setting	value
CcfD (Bacteroides vulgatus), A6KYX8 (protein) MKYKNYFKSIIYLALGAFTLGSCEDFLDRQEDEKLTFDKIWESRNTTQQYWLNAMSFLPNENGSLQGDTEPYLGASDECTIAYDRQYRWINFGTWNPSQVPYYKMDHYYKGIRECNIFLQNVYKCSDPLVTKDQLDEWYWQTRFARAYYYFLMMRDYGPVFLLGDDLLDFTASTEELYRPRNTWDQCVNYVVSEMTQCAESGVVLQQSDLPAAKWGLATVGTCHAVISRLLLYSARPLFNGNKLYSTVKNPDAPDFPELSGVKLFPELDNTKWQKAAEAAKKLIDNPCYELYRAGNDNPYEDYYGVTHETWNKELIWTDRYNGLFSWGVGTVPTGVAGTAYGAVGPTQALVDAYAMNTGWYPITGYEADGTPIVEPLSGYELASELEKSSWIYPSGGWSNKADFEIEAPNMYKDREPRFYVTVFFGGNQWLHGNSATSISFAKGGNGNKSHDYPKSGYLCNRFYDHKLNSSEGQWGNITFPVFRLGEIYLNFIEAVLECKKNGVALDPSYEALAMEKWADLRKRAGLDPITSIYGQVSTEELIQLCRKERQIELAFERHRYFDTRTWMIATQTDNGKMYGMNTSCPLDAGMKGTETPDGFWERTAFETRVFQNKHYLYPFSQRELDRNKLLTQNYGW	glycan array binding signal (z-score)	[2]	-0.896
same	glycan array binding signal (z-score)	[12]	1.24
